Experimental findings from paper doi:10.1101/2025.08.24.672030 are described below.

The chains behind the UniProt entries cited, without tags or fusion partners. Where a name states a change or a piece, a line headed by the entry shows the natural chain unless it says otherwise. A line that says so, or that is headed by a name, gives the form on record, which may keep a tag or linker.
UniProt Q92830: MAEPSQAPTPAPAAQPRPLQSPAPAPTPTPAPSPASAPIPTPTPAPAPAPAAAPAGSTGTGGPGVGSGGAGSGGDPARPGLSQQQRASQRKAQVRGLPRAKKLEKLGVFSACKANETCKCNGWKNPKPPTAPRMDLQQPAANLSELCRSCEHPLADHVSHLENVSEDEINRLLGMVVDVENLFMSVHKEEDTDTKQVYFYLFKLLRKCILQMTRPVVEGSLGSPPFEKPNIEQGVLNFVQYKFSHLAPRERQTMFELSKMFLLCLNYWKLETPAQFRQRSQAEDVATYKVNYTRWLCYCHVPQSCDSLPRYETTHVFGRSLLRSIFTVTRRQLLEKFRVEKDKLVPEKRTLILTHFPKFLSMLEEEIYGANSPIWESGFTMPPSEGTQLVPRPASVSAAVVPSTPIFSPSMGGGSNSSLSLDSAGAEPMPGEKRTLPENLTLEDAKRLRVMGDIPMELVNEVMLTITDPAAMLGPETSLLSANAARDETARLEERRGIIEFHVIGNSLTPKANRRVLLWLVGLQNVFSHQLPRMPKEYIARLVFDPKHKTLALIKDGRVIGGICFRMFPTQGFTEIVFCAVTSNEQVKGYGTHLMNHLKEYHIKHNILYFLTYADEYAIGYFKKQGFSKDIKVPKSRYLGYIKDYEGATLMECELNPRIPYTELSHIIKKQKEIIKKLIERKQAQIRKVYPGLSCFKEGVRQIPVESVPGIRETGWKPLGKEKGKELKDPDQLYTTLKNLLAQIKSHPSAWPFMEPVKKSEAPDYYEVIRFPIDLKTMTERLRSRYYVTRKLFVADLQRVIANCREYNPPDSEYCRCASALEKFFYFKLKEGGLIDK
UniProt P18887: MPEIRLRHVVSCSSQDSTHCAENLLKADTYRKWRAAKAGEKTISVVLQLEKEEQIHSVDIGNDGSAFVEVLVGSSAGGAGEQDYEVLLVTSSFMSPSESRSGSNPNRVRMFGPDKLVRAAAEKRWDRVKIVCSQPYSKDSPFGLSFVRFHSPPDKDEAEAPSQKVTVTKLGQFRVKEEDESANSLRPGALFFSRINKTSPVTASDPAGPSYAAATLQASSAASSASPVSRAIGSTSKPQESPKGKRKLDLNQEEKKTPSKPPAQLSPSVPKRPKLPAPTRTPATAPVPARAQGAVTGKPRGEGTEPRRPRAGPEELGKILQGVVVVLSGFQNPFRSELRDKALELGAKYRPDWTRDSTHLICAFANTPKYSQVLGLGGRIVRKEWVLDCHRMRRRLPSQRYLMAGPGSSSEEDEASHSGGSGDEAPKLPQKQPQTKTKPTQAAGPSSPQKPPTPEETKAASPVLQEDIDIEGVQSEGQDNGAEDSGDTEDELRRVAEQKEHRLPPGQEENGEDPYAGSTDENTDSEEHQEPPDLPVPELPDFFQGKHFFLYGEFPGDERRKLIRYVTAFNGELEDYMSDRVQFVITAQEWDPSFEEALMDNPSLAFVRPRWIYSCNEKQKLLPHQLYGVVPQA
SFB-tagged XRCC1 p.Arg580Trp (c.1738C>T) (P18887, form named): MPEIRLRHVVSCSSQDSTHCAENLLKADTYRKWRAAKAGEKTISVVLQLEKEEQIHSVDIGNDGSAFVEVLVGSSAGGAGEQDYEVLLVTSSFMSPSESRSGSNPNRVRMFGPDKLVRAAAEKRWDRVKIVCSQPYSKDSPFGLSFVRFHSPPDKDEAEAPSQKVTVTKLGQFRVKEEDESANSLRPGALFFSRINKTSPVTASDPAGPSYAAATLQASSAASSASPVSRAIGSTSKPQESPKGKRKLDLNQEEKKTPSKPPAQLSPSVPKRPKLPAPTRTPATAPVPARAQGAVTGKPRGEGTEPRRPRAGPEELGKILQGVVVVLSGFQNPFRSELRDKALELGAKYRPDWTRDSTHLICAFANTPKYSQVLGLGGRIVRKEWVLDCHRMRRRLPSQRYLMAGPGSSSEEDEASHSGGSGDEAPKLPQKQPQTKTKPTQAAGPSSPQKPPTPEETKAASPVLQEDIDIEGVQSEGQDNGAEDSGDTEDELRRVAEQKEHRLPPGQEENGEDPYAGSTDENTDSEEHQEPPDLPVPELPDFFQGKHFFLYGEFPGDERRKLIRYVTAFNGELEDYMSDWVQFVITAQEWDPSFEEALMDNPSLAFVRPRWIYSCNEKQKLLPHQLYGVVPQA
SFB-tagged XRCC1 p.Gln399Arg (c.1196A>G) (P18887, form named): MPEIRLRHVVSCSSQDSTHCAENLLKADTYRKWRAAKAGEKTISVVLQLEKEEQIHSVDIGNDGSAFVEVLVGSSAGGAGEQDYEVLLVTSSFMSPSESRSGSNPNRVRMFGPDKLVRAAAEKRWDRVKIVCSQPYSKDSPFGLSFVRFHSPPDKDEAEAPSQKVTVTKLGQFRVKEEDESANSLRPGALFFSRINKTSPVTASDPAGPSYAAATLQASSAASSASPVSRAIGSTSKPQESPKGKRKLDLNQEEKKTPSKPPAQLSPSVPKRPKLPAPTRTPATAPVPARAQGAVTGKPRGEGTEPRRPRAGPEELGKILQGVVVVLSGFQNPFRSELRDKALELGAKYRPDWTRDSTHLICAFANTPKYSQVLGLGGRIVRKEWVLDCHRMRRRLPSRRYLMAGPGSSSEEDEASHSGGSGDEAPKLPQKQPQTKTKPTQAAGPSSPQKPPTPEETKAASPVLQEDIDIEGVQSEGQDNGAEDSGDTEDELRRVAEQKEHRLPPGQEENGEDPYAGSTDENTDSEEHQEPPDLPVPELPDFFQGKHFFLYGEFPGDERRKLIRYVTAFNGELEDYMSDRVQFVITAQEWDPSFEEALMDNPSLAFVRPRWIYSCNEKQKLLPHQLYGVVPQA
SFB-tagged XRCC1 p.Lys431Asn (c.1293G>C) (P18887, form named): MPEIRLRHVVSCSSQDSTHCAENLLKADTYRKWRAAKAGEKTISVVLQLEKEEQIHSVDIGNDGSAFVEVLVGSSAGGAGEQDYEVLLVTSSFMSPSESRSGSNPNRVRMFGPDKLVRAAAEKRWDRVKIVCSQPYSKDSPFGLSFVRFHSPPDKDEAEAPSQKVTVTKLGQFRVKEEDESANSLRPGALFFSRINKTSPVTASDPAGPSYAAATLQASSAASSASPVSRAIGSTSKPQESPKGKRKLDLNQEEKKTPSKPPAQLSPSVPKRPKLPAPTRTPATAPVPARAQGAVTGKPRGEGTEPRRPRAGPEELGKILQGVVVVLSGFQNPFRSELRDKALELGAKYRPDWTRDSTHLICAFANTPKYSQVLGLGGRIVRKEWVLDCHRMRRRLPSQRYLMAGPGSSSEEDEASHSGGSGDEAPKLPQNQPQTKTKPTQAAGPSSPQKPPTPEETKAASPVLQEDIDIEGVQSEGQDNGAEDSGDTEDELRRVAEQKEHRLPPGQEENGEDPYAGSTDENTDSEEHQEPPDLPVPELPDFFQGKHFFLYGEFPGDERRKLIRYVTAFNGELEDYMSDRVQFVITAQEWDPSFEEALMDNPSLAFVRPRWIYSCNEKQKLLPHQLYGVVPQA
UniProt Q60596: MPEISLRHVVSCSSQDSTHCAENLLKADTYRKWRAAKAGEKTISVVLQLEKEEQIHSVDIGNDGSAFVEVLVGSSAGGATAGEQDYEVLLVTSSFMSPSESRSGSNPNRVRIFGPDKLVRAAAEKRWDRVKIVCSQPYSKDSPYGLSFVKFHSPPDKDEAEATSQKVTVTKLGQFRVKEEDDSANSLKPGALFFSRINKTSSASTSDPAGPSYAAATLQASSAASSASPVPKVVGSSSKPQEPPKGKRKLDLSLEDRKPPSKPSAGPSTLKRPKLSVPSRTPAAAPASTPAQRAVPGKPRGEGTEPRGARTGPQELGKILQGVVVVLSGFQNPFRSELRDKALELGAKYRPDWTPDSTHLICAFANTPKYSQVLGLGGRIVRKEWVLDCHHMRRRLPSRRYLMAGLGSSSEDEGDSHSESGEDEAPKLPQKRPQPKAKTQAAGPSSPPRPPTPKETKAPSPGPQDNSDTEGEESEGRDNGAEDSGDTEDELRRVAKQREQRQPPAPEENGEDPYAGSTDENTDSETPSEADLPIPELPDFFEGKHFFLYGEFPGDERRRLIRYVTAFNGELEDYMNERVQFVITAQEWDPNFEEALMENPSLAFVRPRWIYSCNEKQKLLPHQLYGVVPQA
UniProt Q9JLV6: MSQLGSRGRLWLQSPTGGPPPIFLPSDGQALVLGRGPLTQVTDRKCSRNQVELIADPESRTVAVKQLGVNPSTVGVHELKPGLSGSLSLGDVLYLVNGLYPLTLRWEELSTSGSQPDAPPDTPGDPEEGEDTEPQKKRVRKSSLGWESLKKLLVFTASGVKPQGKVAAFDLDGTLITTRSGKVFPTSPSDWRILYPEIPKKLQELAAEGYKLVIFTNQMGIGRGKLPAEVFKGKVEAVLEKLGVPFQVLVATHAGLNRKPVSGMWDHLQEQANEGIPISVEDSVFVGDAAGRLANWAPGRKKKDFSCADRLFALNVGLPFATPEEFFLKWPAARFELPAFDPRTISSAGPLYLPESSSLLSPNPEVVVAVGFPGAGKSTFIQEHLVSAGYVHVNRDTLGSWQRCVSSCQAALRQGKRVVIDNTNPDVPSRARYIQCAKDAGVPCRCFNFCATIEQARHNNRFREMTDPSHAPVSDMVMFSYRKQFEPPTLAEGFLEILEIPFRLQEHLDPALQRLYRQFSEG

Assay in all cases: pull-down
Assay [1] addresses GST-human GCN5 (human) (UniProt Q92830).
The target of assay [2] is T1, GST-human TADA2B (human) (UniProt Q86TJ2).
T1 sequence: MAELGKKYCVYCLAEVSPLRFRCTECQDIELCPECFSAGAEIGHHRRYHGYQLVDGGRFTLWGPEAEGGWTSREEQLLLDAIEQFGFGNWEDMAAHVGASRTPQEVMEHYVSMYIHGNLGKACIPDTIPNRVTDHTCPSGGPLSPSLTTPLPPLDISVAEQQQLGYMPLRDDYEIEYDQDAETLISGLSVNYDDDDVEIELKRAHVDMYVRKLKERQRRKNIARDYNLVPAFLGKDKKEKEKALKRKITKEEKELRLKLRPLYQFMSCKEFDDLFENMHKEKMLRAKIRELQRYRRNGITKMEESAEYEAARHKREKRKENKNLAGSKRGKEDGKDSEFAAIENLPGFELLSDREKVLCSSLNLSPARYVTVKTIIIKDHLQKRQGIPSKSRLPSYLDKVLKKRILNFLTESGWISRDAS

For assay [3], the target named is GST-human GCN5 (human) (UniProt Q92830). The source holds these as a separate data set.
Assay [4] deals with T1, GST-human TADA2B (human). The source holds these as a separate data set.
Assay [5] deals with SFB-tagged GCN5 (human) (UniProt Q92830).
The target of assay [6] is T2, SFB-tagged TADA2B (human) (UniProt Q86TJ2).
T2 sequence: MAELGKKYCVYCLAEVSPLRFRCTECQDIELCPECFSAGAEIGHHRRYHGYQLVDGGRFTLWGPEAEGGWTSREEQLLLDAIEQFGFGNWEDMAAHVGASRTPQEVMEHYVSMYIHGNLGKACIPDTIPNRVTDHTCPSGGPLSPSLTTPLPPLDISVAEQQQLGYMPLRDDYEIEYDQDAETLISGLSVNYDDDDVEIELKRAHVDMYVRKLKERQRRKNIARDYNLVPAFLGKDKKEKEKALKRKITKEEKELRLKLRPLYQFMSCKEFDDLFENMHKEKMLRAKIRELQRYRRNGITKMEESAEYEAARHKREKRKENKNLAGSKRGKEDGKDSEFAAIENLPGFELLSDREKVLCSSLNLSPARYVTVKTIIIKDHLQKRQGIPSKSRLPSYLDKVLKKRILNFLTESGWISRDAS

For assay [7], the target named is SFB-tagged XRCC1 (human) (UniProt P18887).
The target of assay [8] is GST-human XRCC1 (human) (UniProt P18887).
The target is the same in assay [9]. This is another data set of the same source.
Assay [10] has as its target SFB-tagged XRCC1 (human) (UniProt P18887). The source holds these as a separate data set.
The target of assay [11] is SFB-tagged XRCC1 p.Arg580Trp (c.1738C>T) (human) (UniProt P18887).
In assay [12] the target is SFB-tagged XRCC1 p.Gln399Arg (c.1196A>G) (human) (UniProt P18887).
Assay [13] concerns the target SFB-tagged XRCC1 p.Lys431Asn (c.1293G>C) (human) (UniProt P18887).
Assay [14] addresses GST-mouse XRCC1 (mouse) (UniProt Q60596).
Assay [15] has the same target. This is another data set of the same source.
The target in assay [16] is SFB-tagged GCN5 (human) (UniProt Q92830). This is another data set of the same source.
In assay [17] the target is GST-human GCN5 (human) (UniProt Q92830). The source holds these as a separate data set.
Assay [18] has as its target GST-human XRCC1 (human) (UniProt P18887). This is another data set of the same source.
Assay [19] addresses SFB-tagged GCN5 (human) (UniProt Q92830). This is another data set of the same source.
Assay [20] has as its target SFB-tagged XRCC1 (human) (UniProt P18887). The source holds these as a separate data set.
In assay [21] the target is SFB-tagged XRCC1 p.Arg580Trp (c.1738C>T) (human) (UniProt P18887). The source holds these as a separate data set.
In assay [22] the target is SFB-tagged XRCC1 p.Gln399Arg (c.1196A>G) (human) (UniProt P18887). This is another data set of the same source.
The target in assay [23] is SFB-tagged XRCC1 p.Lys431Asn (c.1293G>C) (human) (UniProt P18887). This is another data set of the same source.

Read-outs that look alike come from different tables or passages of the source. No constants are given. Whether binding was seen depends on the method and setting. Binding seen in cells or lysates may run through a third protein. Some results given as binding are weak or reduced against the parent protein; the word gives no strength. For some assays here: Tags and fused reporters may be left off the sequences shown.

As for “XRCC1 (human, endogenous) (from UniProt P18887 1-633)”, the binding result (in the assay with GST-human GCN5 (human) [1]; with GST-human TADA2B (human) [2]; in the assay with GST-human GCN5 (human) [3]; with GST-human TADA2B (human) [4]; with SFB-tagged GCN5 (human) [5]; in [6]) was “binds” in each case.

Regarding “GCN5 (human, endogenous) (from UniProt Q92830 1-837)”, the binding entry (with SFB-tagged XRCC1 (human) [7]; with GST-human XRCC1 (human) [8]; with GST-human TADA2B (human) [4]; with GST-human XRCC1 (human) [9]; in [6]; with SFB-tagged XRCC1 (human) [10]) was “binds” each time. Also, the binding entry in [11], in assay [12] and in assay [13] was “binds” throughout.

Take “PNKP (mouse, endogenous) (from UniProt Q9JLV6 1-522)”: in the assay with GST-mouse XRCC1 (mouse) [14], the binding result was “binds”.

B1: LIG3 (mouse, endogenous) (protein, UniProt P97386 1-1015)
chain: MTLAFKILFPRNLCALGRKELCLFPEQNRWAAISQFSQWSETNLLGGCCLLQRRKPVLALQRGHLRPRATHLTFWPGSHVGLCTGPCAMAEQRFCVDYAKRGTAGCKKCKEKIVKGVCRIGKVVPNPFSESGGDMKEWYHIKCMFEKLERARATTKKIEDLTELEGWEELEDNEKEQISQHIADLSSKAAATPKKKAAVQAKLTTTGQVTSPVKGASFITSTNPRKFSGFSAAKPNNSEQAPSSPAPGTSLSASKCDPKHKDCLLREFRKLCAMVAENPSYNTKTQIIHDFLQKGSTGGFSDGFHGDVYLTVKLLLPGVIKSVYNLNDKQIVKLFSRIFNCNPDDMARDLEQGDVSETIRIFFEQSKSFPPAAKSLLTIQEVDAFLLHLSKLTKEDEQQQALQDIASRCTANDLKCIIRLIKHDLKMNSGAKHVLDALDPNAYEAFKASRNLQDVVERVLHNEQEVEKDPGRRRALRVQASLMTPVQPMLAEACKSIEYAMKKCPNGMFSEIKYDGERVQVHKKGDHFSYFSRSLKPVLPHKVAHFKDYIPKAFPGGQSMILDSEVLLIDNNTGKPLPFGTLGVHKKAAFQDANVCLFVFDCIYFNDVSLMDRPLCERRKFLHDNMVEIRNRIMFSEMKQVTKASDLADMINRVIREGLEGLVLKDVKGTYEPGKRHWLKVKKDYLNEGAMADTADLVVLGAFYGQGSKGGMMSIFLMGCYDPDSQKWCTVTKCAGGHDDATLARLQKELVMVKISKDPSKIPSWLKINKIYYPDFIVPDPKKAAVWEITGAEFSRSEAHTADGISIRFPRCTRIRDDKDWKSATNLPQLKELYQLSKDKADFAVVAGDEASPTTGGSSGENEGTAGSAGPCKGPPSKSSASAKTTEQKLNSPSSRGGIKPIPKHSPMKPGEKLAVKSSPVKVGMKRKATDETPCLKKVLLDVFTGVRLYLPPSTPDFKRLKRYFVAFDGDLVQEFDMGSATHVLGNREKNTDAQLVSSEWIWACIRKRRLIAPC
Regarding B1, in the assay with GST-mouse XRCC1 (mouse) [15], the binding result is given as “binds”.

B2: TADA2B (human, endogenous) (protein, UniProt Q86TJ2 1-420)
chain: MAELGKKYCVYCLAEVSPLRFRCTECQDIELCPECFSAGAEIGHHRRYHGYQLVDGGRFTLWGPEAEGGWTSREEQLLLDAIEQFGFGNWEDMAAHVGASRTPQEVMEHYVSMYIHGNLGKACIPDTIPNRVTDHTCPSGGPLSPSLTTPLPPLDISVAEQQQLGYMPLRDDYEIEYDQDAETLISGLSVNYDDDDVEIELKRAHVDMYVRKLKERQRRKNIARDYNLVPAFLGKDKKEKEKALKRKITKEEKELRLKLRPLYQFMSCKEFDDLFENMHKEKMLRAKIRELQRYRRNGITKMEESAEYEAARHKREKRKENKNLAGSKRGKEDGKDSEFAAIENLPGFELLSDREKVLCSSLNLSPARYVTVKTIIIKDHLQKRQGIPSKSRLPSYLDKVLKKRILNFLTESGWISRDAS
For the molecule B2, the binding result with SFB-tagged GCN5 (human) [16], with SFB-tagged XRCC1 (human) [7], in the assay with GST-human GCN5 (human) [17], with GST-human XRCC1 (human) [18], in the assay with SFB-tagged GCN5 (human) [19] and with SFB-tagged XRCC1 (human) [20] was “binds” in each case. The results for the binding result in [21], in [22] and in [23] were “no binding”, “binds” and “binds”, respectively.
